Experiment [1] concerns the target RXRα (overexpressed in HEK-293T cells) (UniProt P19793). The experiment can be described thus: co-IP; cellular extracts of HEK-293T cells transfected with STAT1 and RXRα expression vectors; anti-RXRα (or anti-STAT1) antibodies 16 h at 4°C, protein A/G Sepharose beads 1 h at 4°C; Western blotting with rabbit anti-STAT1. (In general: A western blot detects proteins with antibodies after separation by electrophoresis.)

Chains of the proteins cited; added tags and fusions are not shown.
UniProt P19793: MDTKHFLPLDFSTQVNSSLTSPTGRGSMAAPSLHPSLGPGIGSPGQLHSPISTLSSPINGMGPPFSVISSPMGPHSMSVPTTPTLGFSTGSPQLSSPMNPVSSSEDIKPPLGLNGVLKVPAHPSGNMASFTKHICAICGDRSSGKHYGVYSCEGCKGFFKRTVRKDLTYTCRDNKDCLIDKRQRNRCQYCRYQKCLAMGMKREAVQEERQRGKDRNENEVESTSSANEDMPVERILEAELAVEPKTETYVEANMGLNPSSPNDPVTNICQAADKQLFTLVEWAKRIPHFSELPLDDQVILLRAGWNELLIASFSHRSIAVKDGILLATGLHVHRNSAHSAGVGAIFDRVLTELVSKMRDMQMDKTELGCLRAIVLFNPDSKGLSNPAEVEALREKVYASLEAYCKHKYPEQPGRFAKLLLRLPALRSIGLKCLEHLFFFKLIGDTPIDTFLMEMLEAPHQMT
UniProt P42224: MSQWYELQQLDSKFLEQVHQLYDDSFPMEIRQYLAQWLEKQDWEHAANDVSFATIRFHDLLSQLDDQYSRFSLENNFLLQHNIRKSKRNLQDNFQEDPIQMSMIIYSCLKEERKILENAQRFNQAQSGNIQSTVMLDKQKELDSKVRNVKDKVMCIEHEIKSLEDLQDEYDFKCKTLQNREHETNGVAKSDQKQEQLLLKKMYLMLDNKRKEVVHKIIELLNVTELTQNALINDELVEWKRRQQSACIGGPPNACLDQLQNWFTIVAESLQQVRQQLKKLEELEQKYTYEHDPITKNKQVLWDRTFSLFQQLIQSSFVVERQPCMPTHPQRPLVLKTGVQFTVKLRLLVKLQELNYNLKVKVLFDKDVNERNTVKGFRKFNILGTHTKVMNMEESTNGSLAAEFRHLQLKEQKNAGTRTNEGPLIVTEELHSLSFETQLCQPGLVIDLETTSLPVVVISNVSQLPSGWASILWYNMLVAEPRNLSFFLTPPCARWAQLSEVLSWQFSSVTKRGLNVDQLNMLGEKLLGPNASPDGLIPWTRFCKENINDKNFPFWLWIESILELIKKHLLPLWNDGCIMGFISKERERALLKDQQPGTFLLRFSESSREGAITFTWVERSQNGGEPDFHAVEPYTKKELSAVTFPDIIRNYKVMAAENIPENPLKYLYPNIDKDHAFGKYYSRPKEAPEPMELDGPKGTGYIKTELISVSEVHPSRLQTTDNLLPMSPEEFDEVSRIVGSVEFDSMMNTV

In the next experiment the target is GST-RXRα fusion protein (UniProt P19793). Briefly: pull-down; GST-RXRα (or GST) immobilised on glutathione-agarose beads, incubated with whole cell extracts of STAT1-overexpressing RAW 264.7 cells in Interaction Buffer (20 mM Hepes, 5 mM MgCl2, 0.2% NP40, 0.2% BSA, 7.5% glycerol, protease inhibitors) for 16 h at 4°C; washed with 100 mM KCl, 20 mM Hepes pH 7.9, 5 mM MgCl2, 0.2% NP40; Western blotting with anti-STAT1; only the target purified.

Results on two substances are retold here after PMC3395716.

No constants are given. Whether binding was seen depends on the method and setting. In cells and extracts the contact can be indirect. Some binding calls cover weakened binding; strength is not graded here.

With “STAT1 (overexpressed in HEK-293T cells) (from UniProt P42224 1-750)”, the binding entry in experiment [1] was “binds”.

Take “STAT1 (overexpressed in RAW 264.7 macrophages) (from UniProt P42224 1-750)”: the binding entry with GST-RXRα fusion protein is recorded as “binds”.
